In paper PMC5552852, “Structural basis for Ccd1 auto-inhibition in the Wnt pathway through homomerization of the DIX domain” (Scientific Reports, 2017):

How the values were obtained:
[1] = target: T1, MBP-fused Dvl1 DIX domain (UniProt P51141); experiment: pull-down; MBP-fused Axin or Dvl1 held on amylose resin, mCcd1 DIX free; 277 K, 1 h, 10 mM HEPES-Na pH 7.5, 150 mM NaCl, 1 mM DTT; SDS-PAGE (Figures 5a, 5d, 5e); both purified
T1 sequence: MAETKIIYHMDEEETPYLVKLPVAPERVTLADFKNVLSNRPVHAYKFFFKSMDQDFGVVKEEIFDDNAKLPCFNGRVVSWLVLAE

[2] = target: T2, MBP-fused Axin fragment, residues 690-740 (UniProt O70239); experiment: as above
T2 sequence: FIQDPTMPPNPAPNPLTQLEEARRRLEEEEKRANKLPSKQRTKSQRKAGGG

[3] = target: GST-fused mCcd1 DIX domain (mouse); experiment: pull-down; GST-fused mCcd1 as bait, Dvl1 DIX free; 277 K, 1 h, 10 mM HEPES-Na pH 7.5, 150 mM NaCl, 1 mM DTT; eluted with glutathione; SDS-PAGE (Figure 5b); both purified

Molecule: mCcd1 DIX domain V445A/K446A (mouse) (domain or fragment)
- binding [1]: no binding

Molecule: mCcd1 DIX domain W466A (mouse) (domain or fragment)
- binding [1]: no binding

Molecule: mouse Coiled-coil-DIX1 (mCcd1) DIX domain (domain or fragment)
- binding [1]: binds
- binding [2]: no binding

B1: Dvl1 DIX domain (domain or fragment, UniProt P51141 1-85)
chain: MAETKIIYHMDEEETPYLVKLPVAPERVTLADFKNVLSNRPVHAYKFFFKSMDQDFGVVKEEIFDDNAKLPCFNGRVVSWLVLAE
- binding [3]: binds

Results are given in words; binding and its absence hold for the method and conditions named. For some assays here: Binding can be weak; no strength is given. For some assays here: Sequences can lack the tags named with a protein.
